Read-outs that look alike come from different tables or passages of the source. For at least one compound, name, drawing or mass did not settle the structure.
Test system: Herpes simplex 1
Type: in vivo, NMRI mice
Details: for Survivors: groups of 5 mice
Description: The treatment was performed twice daily, starting after the infection. The substances were administered to the experimental animals 5 or 9 times (see Table 1).
The chemotherapeutic action can be seen from Table 1.

SMILES: CCOC(=O)c1ccccc1CP(=O)(OCC)OCC [W, Diethyl 2-carboxyethylbenzylphosphonate]
- Average survival time (po 9 × 3 mg/kg): 8.5 days
- Survivors (po 9 × 3 mg/kg): 1
- Average survival time (po 9 × 10 mg/kg): 9.5 days
- Survivors (po 9 × 10 mg/kg): 1
- Average survival time (po 9 × 30 mg/kg): 8.0 days
- Survivors (po 9 × 30 mg/kg): 4
